Source: PubChem BioAssay AID651660 (Broad Institute, 2012)
“And” between values parts separate entries of the source, which are not always exact repeats. Identical values can stand only once. Hit rate of the full screen: of about 1,900 compounds, about 15 (0.8%) were called active.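 Rule for the calls: active = every replicate shows at least 50% inhibition; inconclusive = mean inhibition at least 50% but some replicate below; inactive = the rest.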 This is one part of the list.

By UniProt entry, the sequences of proteins in these tests, tags left out. Where a name states a change or a piece, a line headed by the entry shows the natural chain unless it says otherwise.
UniProt P43351: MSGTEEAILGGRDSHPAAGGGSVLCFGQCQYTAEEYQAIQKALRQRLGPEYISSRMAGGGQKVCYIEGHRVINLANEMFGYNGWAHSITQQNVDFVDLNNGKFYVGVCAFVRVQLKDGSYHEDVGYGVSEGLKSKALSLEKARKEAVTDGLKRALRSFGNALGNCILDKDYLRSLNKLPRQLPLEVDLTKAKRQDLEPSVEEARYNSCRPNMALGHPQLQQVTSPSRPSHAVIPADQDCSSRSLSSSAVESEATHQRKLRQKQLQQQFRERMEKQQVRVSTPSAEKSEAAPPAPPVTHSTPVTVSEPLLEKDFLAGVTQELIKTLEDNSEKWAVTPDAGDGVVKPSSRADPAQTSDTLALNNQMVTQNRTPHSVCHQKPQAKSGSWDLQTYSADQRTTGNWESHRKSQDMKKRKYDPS

Biological target: DNA repair protein RAD52 homolog (Homo sapiens) (UniProt P43351)
Experiment: RAD52 ssDNA annealing inhibitors, primary screen, biochemical, FRET, single point (AID 651660);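 note: 0% = median of neutral control wells and 100% = median of positive control wells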
Conditions: Recombinant RAD52 ssDNA annealing, FRET fluorescence, 30 min; at 18.7 µM; active compounds read high

Compound | inhibition
COc1cc(Cc2cnc(N)nc2N)cc(OC)c1OC | inactive: -5.03% and inactive: 1.99%
COc1ccc(CCN2CNc3c(c(=O)n(C)c(=O)n3C)C2)cc1OC | inactive: -4.7%
COc1ccc(CN(CCC(c2ccccc2)c2ccc(OC(C)C)cc2)C(=O)CCl)cc1OC (configuration not stated) | inactive: 28.8%
CC(C)OC(=O)C1C(=O)CC(C)(O)C(C(=O)OC(C)C)C1c1cccc(O)c1 (configuration not stated) | inactive: 1.32%
CO[C@@]1(NC(=O)Cc2cccs2)C(=O)N2C(C(=O)O)=C(COC(N)=O)CS[C@@H]21 | inactive: -23.3%
O=C(c1cc2cc(Br)ccc2o1)N1CCCCC1 | inactive: 1.69%
O=C(O)CCSCCC(=O)O | inactive: -7.85%
CC(C)Oc1ccc(C(CC(=O)O)c2ccc(F)cc2)cc1 (configuration not stated) | inactive: -7.3%
O=C(c1ccco1)N(CCC(c1ccccc1)c1ccco1)Cc1ccco1 (configuration not stated) | inactive: -46.1%
COc1ccc2oc(=O)c(C(=O)N3CCN(c4ccccc4)CC3)cc2c1 | inactive: -1.5%
CCOc1ccc2ccccc2c1CNc1nnnn1C | inactive: -2.89%
Cc1ccc2ncnc(NCCCCCC(=O)O)c2c1 | inactive: 3.28%
Cc1ccsc1C1NC(=O)c2ccccc2N1 (configuration not stated) | inactive: 1.49%
COc1ccc(OC(C)C(=O)Nc2ccc([N+](=O)[O-])cc2)cc1 (configuration not stated) | inactive: -3.9%
O=C(NCCCCCc1nc2ccccc2[nH]1)c1ccccc1Cl | inactive: -0.634%
O=C(Nc1cccc(-c2nc3ncccc3o2)c1)c1ccccc1 | inactive: 2.68%
CCCCOC(=O)c1ccc(N)cc1 | inactive: -1.79%
O=C(CS(=O)(=O)Cc1ccccc1)NCc1ccc2c(c1)OCO2 | inactive: 1.08%
Cc1ccc(-n2ncc3c(Nc4cccc(C(=O)O)c4)ncnc32)cc1 | inactive: -4.75%
NCCOc1ccccc1OCCN | inactive: 2.09%
Cc1ccc2[nH]c3c(c2c1)CN(C(=O)CN1CCSCC1)CC3 | inactive: -1.24%
COc1cc(OC)cc(C(C)=O)c1 | inactive: -3.64%
Cc1ccc(/C=N/Nc2nc(C(C)(C)C)cs2)o1 | inactive: -5.64%
CC(=O)c1cccc2c(O)c(C3=Nc4ccccc4C3=O)[nH]c12 | inactive: -6.23%
CC(CCCC(C)(C)O)NC(=O)c1ccc(OC2CCN(C(=O)C3CC3)CC2)cc1 (configuration not stated) | inactive: 2.1%

Compound | inhibition
CC(C)OC(=O)C1C2C=CC3(CN(CC4CCCO4)C(=O)C13)O2 (configuration not stated) | inactive: -7.36%
COc1cc2c(cc1OC)C(c1ccc(-c3cc(Cl)ccc3Cl)o1)=NCC2 | inactive: -29.8%
CC(C)COCC(CN(Cc1ccccc1)c1ccccc1)N1CCCC1 (configuration not stated) | inactive: 20.9%
Oc1ccc(Cl)cc1Cc1cc(Cl)ccc1O | inactive: 2.67%
COc1ccc(OC(C)C(=O)Nc2ccccc2F)cc1 (configuration not stated) | inactive: -11.2%
O=C(Nc1nc2ccccc2s1)c1ccc(F)cc1 | inactive: 4.49%
N#C/C(C(N)=O)=c1/ccc2c(c1)N1C3=C(CCCC3)CC3CCCCC31N=2 (configuration not stated) | inactive: -3.13%
CCn1c2ccccc2c2cc(CC(N)=O)ccc21 | inactive: 0.948%
CCn1c(/C=C/c2ccccc2)nc2ccccc2c1=O | inactive: -9.41%
CN1CCN(C2=Nc3cc(Cl)ccc3Nc3ccccc32)CC1 | inactive: 11.5%
Cc1cccc(-n2c(Cc3ccccc3)n[nH]c2=S)c1 | inactive: -6.53%
O[C@@H](CNC[C@H](O)c1ccccc1)c1ccccc1 | inactive: -5.65%
O=C(Nc1cccc(Cl)c1)N1CCN2C(=O)c3ccccc3C12c1ccccc1 (configuration not stated) | inactive: 10%
Cc1nc2ccccc2n1CC(=O)NC1CCCC1 | inactive: -8.58%
CC(C)(C)c1csc(N/N=C/c2cccnc2)n1 | inactive: 10.6%
NC12CC3CC(CC(C3)C1)C2 | inactive: 10.2%
Cc1cc(Cl)cc2c1NC(=O)[C@]21[C@@H]2C(=O)N(Cc3ccccc3)C(=O)[C@@H]2[C@@H]2CCCN21 | inactive: -18.1%
N/C(=N\OC(=O)CCCOc1ccc(Cl)cc1Cl)c1ccccn1 | inactive: 0.236%
Cc1ccc(-c2nn(-c3cccc(F)c3)cc2CN2CCN(c3ccccn3)CC2)o1 | inactive: -31.4%
COc1cc(C2Nc3ccccc3C(=O)N2c2ccccc2)ccc1O (configuration not stated) | inactive: -15.2%
Cc1ccc2nc(N=C(N)N)nc(C)c2c1 | active: 66.7%
COc1cc(C(=O)N/C(=C\c2cn(C)c3ccccc23)C(=O)NCCCO)cc(OC)c1OC | inactive: 2.3%
CCn1ccnc1CN(C)Cc1cn(-c2cccc(C)c2)nc1-c1cccc(F)c1 | inactive: 48.3%
c1cnc2c(c1)ccc1cccnc12 | inactive: -16.8%
CC1(C)CC(=O)c2cc(O)ccc2O1 | inactive: 0.351%

Compound | inhibition
CCC(NC(C)C)C(O)c1ccc(O)c(O)c1 (configuration not stated) | inactive: -2.83%
CCOc1ccc(OCCSc2nc3ccccc3[nH]2)cc1 | inactive: 1.75%
CC(C)C1CC(CCNCc2ccc(N(C)C)cc2)(c2ccccc2)CCO1 (configuration not stated) | inactive: 37.8%
COc1ccccc1-c1c(C(F)(F)F)oc2cc(OC(=O)c3ccc([N+](=O)[O-])cc3)ccc2c1=O | inactive: -10.4%
COc1cc(OC)c(C(=O)CCCN2CCCC2)c(OC)c1 | inactive: -3.52%
CCN1CCn2c3c(c4cc(Cl)ccc42)CCCC31 (configuration not stated) | inactive: -6.95%
Cc1ccc2c(CC(=O)O)coc2c1 | inactive: -14.4%
CCOC(=O)NN1C(=O)c2ccccc2NC1c1ccc(OC)c(OC)c1 (configuration not stated) | inactive: 7.01%
O=C1C=CC(=O)C(C2=C3C(=O)N(CCc4ccccc4)CC(=O)N3CCC2)=C1 | inactive: -6.11%
C[C@]12C=CC(=O)C=C1CCC1C3CC[C@](O)(C(=O)CO)[C@@]3(C)CC3OC312 (some centres not stated) | inactive: -3.11%
COc1cc2c(cc1OC)-c1cc(OCc3ccccc3Cl)nc(=O)n1CC2 | inactive: -10.9%
COc1ccccc1N1CCN(CC(O)COc2cccc3ccccc23)CC1 (configuration not stated) | inactive: 9.55%
CN1CCC(=C2c3ccccc3CC(=O)c3sccc32)CC1 | inactive: -4.37%
COc1ccc(NC(=S)N2CCN(CCN3C(=O)c4cccc5cccc(c45)C3=O)CC2)cc1 | inactive: 17.9%
OC(CCCN1CCC(O)(c2ccc(Cl)cc2)CC1)c1ccc(F)cc1 (configuration not stated) | inactive: -8.05%
COc1ccc(-c2c(NC(=O)c3ccco3)n(C)c3ccccc3c2=O)cc1 | inactive: -17.5%
Clc1cc(-c2ccc(/C=N/n3cnnc3)o2)ccc1Br | inactive: -281%
CSCCC(NC(C)=O)C(=O)Oc1ccc2c3c(c(=O)oc2c1)CCCC3 (configuration not stated) | inactive: -4.83%
CCOc1ccc(N2C(=O)CC(NCCNc3ccc([N+](=O)[O-])cn3)C2=O)cc1 (configuration not stated) | inactive: -4.24%
Cc1oc(/C=N/NC(=O)CC2(C)OCCO2)cc1Br | inactive: -12.8%
Cn1c(=S)n(C)c2ccccc21 | inactive: -9.01%
COc1ccc(C(C)=O)c2c1OCCO2 | inactive: 1.15%
CCC(=O)c1ccc(O)cc1 | inactive: -2.03%
C=CCC1(Cl)C(=O)C(Cl)=C(N2CCOCC2)C1(OC)OC (configuration not stated) | inactive: 3.46%
Cc1cc(C)cc(Nc2nc3c([nH]2)c(=O)n(C)c(=O)n3C)c1 | inactive: -0.06%

Compound | inhibition
CC(C)(C)C(=O)NCCCNc1ccc([N+](=O)[O-])cc1 | inactive: -3.87%
CN1CCCN=C1COC(=O)C(O)(c1ccccc1)C1CCCCC1 (configuration not stated) | inactive: -2.24%
O=Cc1ccc(O)c(O)c1 | inactive: -7.36%
C[C@H](NC(=O)NCCc1ccccc1)C(=O)O | inactive: -11.4%
COC(=O)c1[nH]c2ccccc2c1NC(=O)CN1CCN(C/C=C/c2ccccc2)CC1 | inactive: 9.39%
COc1ccc(-c2cc(=O)oc3c(C)c(O)c(CN(C)C)cc23)cc1 | inactive: -25.3%
COC(=O)c1cc(-c2c(C)oc3cc(OC)ccc3c2=O)c(C)o1 | inactive: 2.67%
O=C1CCCC(=O)C1=Cc1c[nH]c2ccccc12 | inactive: -7.11%
CC(=O)O[C@H]1CSC[C@H]1NC(=O)c1ccccc1 | inactive: -6.56%
CC1=C/C(=N\N=C2\NC(=O)C(CC(=O)Nc3ccccc3F)S2)CC(C)(C)C1 (configuration not stated) | inactive: -3.25%
COc1ccc(C(=O)Nc2ncc3c(n2)CC(C)CC3=O)cc1 (configuration not stated) | inactive: -7.8%
CC(=O)Oc1ccc2c(=O)c(Oc3ccccc3[N+](=O)[O-])coc2c1 | inactive: -8.07%
C=C(C)c1nc2cc(OC)c(OC)cc2c(=O)o1 | inactive: 2.61%
CCOC(=O)[C@H](CCc1ccccc1)N[C@@H](C)C(=O)N1CCC[C@H]1C(=O)O | inactive: -1.23%
O=C(Nc1ccc(N2CCOCC2)cc1)c1ccc(-c2ccccc2[N+](=O)[O-])o1 | inactive: -3.44%
Cc1ccc2c(c1)C1(C(=O)N2)N2CCCC2C(C(=O)c2ccc3ccccc3c2)C12C(=O)Nc1ccccc12 (configuration not stated) | inactive: 8.82%
C[C@]12CC[C@@H]3c4ccc(O)cc4CC[C@H]3[C@@H]1C[C@@H](O)[C@@H]2O[C@@H]1O[C@H](C(=O)O)[C@@H](O)[C@H](O)[C@H]1O | inactive: 5.26%
CCC(=O)Nc1ccc(C(=O)N2CCN(C(=O)c3ccco3)CC2)cc1 | inactive: -9.41%
Cc1ccc2c(c1)C1OCCC1C1N2C(=O)C2C(C(=O)O)C3C=CC21O3 (configuration not stated) | inactive: -2.31%
COC(=O)c1ccc(OCCCCN2CC(C)OC(C)C2)cc1 (configuration not stated) | inactive: -1.97%
O=C(Nc1ccc(F)c([N+](=O)[O-])c1)c1ccc2c(c1)OCCO2 | inactive: -13.5%
CCOC(=O)C1(Cc2cccc(Cl)c2)CCCN(C2CCN(C(C)=O)CC2)C1 (configuration not stated) | inactive: -44.5%
